Reference: PubChem BioAssay AID652272 (Drosophila RNAi Screening Center, 2013)
In all, the deposit lists about 21,000 reagents; shown is an unselected part of those that have a named target and a result. In the full data, 503 (2.4%) were called active. 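Raw plate light values, not normalised; calls rest on replicate z-scores that were not deposited; hits include reporter decreases as well as increases.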 Entries without a mark were called inactive. Reagents against one gene are numbered here. The record does not give: the amount of reagent, the time to read-out.

Assay: 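Genes whose knock-down decreases or increases Hedgehog reporter output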 (primary screen)
Cells: Drosophila clone 8 (Cl8) cells
Reagent: long dsRNA against Drosophila genes
Measurement: 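Plate reader light from a firefly reporter under a ptc promoter fragment that responds to Hedgehog, with Renilla light as transfection reference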
Scale: firefly Hh reporter signal: higher = more ptc reporter light; Renilla reference signal: higher = more Renilla control light
Call rule: 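Hit when the z-score averaged over two replicates is under -2 or over +3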
Meaning of the calls: active = hit: reporter lowered or raised; inactive = not a hit

target	reagent no.	firefly Hh reporter signal, replicate 1	firefly Hh reporter signal, replicate 2	firefly Hh reporter signal, replicate 3	Renilla reference signal, replicate 1	Renilla reference signal, replicate 2
Chd1 (Chromodomain-helicase-DNA-binding protein 1)	1	77830	72833		3317	3399
CG7565	1	1.05e5	73920		4460	2723
Dd (Dullard)	1	1.06e5	1.06e5		2485	2774
CG6685	1	79675	42528	55616	3309	3088
CG6012	1	96611	72353		2518	5771
CG8547	1	1.10e5	1.10e5		4768	4321
ENGase (Endo-beta-N-acetylglucosaminidase)	1	5.85e5	1.24e5		4185	4185
ENGase (Endo-beta-N-acetylglucosaminidase)	2	61206	1.87e5		1760	9494
Vta1 (Vesicle trafficking 1)	1	1.30e5	4.86e5	72661	4423	26228
CG15005	1	1.29e5	66492		3622	5268
mRpL43 (mitochondrial ribosomal protein L43)	1	1.11e5	6.29e5	69859	3922	37748
Mpi (Mannose phosphate isomerase)	1	76653	1.22e5		1803	3220
CG11275	1	1.00e5	81916		1714	6966
CG17377	1	8.05e5	8.73e5	3.58e5	38992	5480
CG17377	2	97962	1.52e5		4316	5945
Eogt (EGF-domain O-GlcNAc transferase)	1	1.44e5	95856		5621	4416
I-2 (Inhibitor-2)	1	28041	38000	24258	3746	2263
CG10910	1	1.26e5	6.61e5	65906	3521	36077
CG32428	1	68624	47553		2307	1490
CG32428	2	1.18e5	1.04e5		4740	3065
smog	1	1.37e5	69650		3735	7376
smog	2	1.14e5	37715		2898	3552
Hmt-1 (Heavy metal tolerance factor 1)	1	1.01e5	83744		3926	3420
